The results in this text go back to paper PMC9249791, “Molecular dissection of the glutamine synthetase-GlnR nitrogen regulatory circuitry in Gram-positive bacteria” (Nature Communications, 2022).

No constants are given. Whether binding was seen depends on the method and setting. Some binding calls cover weakened binding; strength is not graded here.

In the test the target is T1, Bacillus subtilis GlnR, full length (B. subtilis), P37582.
T1 chain: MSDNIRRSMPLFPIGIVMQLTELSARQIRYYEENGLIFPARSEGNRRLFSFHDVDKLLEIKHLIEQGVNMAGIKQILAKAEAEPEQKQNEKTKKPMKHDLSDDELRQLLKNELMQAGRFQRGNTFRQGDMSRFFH
Briefly: negative stain EM; Bs GS mixed 1:1 with FL GlnR; 25 mM Tris pH 7.5, 200 mM NaCl, 5% glycerol, 1 mM MgCl2, 5 mM glutamine; 2D class averages; both purified. To be noted: remark: other sources report otherwise.

B1: Bacillus subtilis glutamine synthetase, P12425 1-444 (enzyme)
chain: MAKYTREDIEKLVKEENVKYIRLQFTDILGTIKNVEIPVSQLGKALDNKVMFDGSSIEGFVRIEESDMYLYPDLNTFVIFPWTAEKGKVARFICDIYNPDGTPFEGDPRNNLKRILKEMEDLGFSDFNLGPEPEFFLFKLDEKGEPTLELNDKGGYFDLAPTDLGENCRRDIVLELEEMGFEIEASHHEVAPGQHEIDFKYAGAVRSCDDIQTFKLVVKTIARKHGLHATFMPKPLFGVNGSGMHCNLSLFKNGVNAFFDENADLQLSETAKHFIAGIVKHATSFTAVTNPTVNSYKRLVPGYEAPCYVAWSAQNRSPLIRIPASRGISTRVEVRSVDPAANPYLALSVLLAAGLDGIKNKLEAPAPIDRNIYVMSKEERMENGIVDLPATLAEALEEFKSNEVMVKALGEHLFEHFIEAKEIEWDMFRTQVHPWEREQYMSQY
B1: the binding entry was “binds”.
